Results deposited as PubChem BioAssay AID652248 (Drosophila RNAi Screening Center, 2013)
The deposit covers 863 reagents; below is an unselected part. 32 of all reagents (3.7%) count as active. 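Calls also used reproducibility and a similarity ranking whose scores are not deposited; many active genes show only modest elongated scores.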 Entries without a mark were called inactive. Further read-outs or replicates are left out here. Not given: the amount of reagent, the time to read-out.

- Purpose: 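Kinase and phosphatase regulators of cell lengthening and shape variety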 (primary screen)
- Cells: cultured Drosophila hemocytes
- Knock-down reagent: long dsRNA against Drosophila genes
- Read-out: 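Automated microscopy of stained actin, tubulin and nuclei; single-cell shape measures assigned to five reference shape types, giving a score per dsRNA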
- Scale: elongated score: higher = more elongated bipolar cells
- Hit rule: 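a gene counts as active when its knock-down clearly increases the elongated score; a low similarity score was then used to rank the actives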

no.	target gene	DRSC id	elongated score, rep 1	elongated score, rep 2
1	CG12147	DRSC12192	-0.53	
2	CG12147	DRSC30029	2.69	
3	Pitslre	DRSC11874	-0.17	
4	Pitslre	DRSC23346	5.88	
5	Pez	DRSC03397	0.22	
6	Pez	DRSC27921	1.26	
7	PyK	DRSC16806	-0.34	
8	PyK	DRSC27033	0.05	
9	Vps15	DRSC16553	1.32	
10	Dsor1	DRSC18462	1.67	
11	Dsor1	DRSC27547	3.02	
12	CG7156	DRSC16207	-0.53	
13	CG7156	DRSC27345	1.51	
14	Snrk	DRSC07192	0.28	
15	Snrk	DRSC23332	1.76	
16	Cmpk	DRSC16643	0.25	
17	Lkb1	DRSC16481	-0.53	
18	CG8565	DRSC20112	-0.21	
19	CanB	DRSC18449	-0.53	
20	CanB	DRSC29220	4.49	
21	Tie	DRSC08104	-0.53	
22	Tie	DRSC08702	-0.53	
23	Cdk1	DRSC03504	5.77	
24	CG7497	DRSC10857	0.93	
25	CG7497	DRSC28188	0.73	
26	CG31140	DRSC14603	-0.14	
27	CG31140	DRSC15904	-0.53	
28	dnk	DRSC16933	0.09	
29	dnk	DRSC29240	5.08	
30	Alk	DRSC05918	-0.53	
31	Alk	DRSC23342	0.48	
32	CG9962	DRSC00739	-0.53	
33	CG9962	DRSC27772	0.72	
34	CG2964	DRSC00554	-0.53	
35	CG2964	DRSC27524	-0.07	

The list goes on; the last 8 above are carried over.
no.	target gene	DRSC id	elongated score, rep 1	elongated score, rep 2
28	dnk	DRSC16933	0.09	
29	dnk	DRSC29240	5.08	
30	Alk	DRSC05918	-0.53	
31	Alk	DRSC23342	0.48	
32	CG9962	DRSC00739	-0.53	
33	CG9962	DRSC27772	0.72	
34	CG2964	DRSC00554	-0.53	
35	CG2964	DRSC27524	-0.07	
36	Tssk	DRSC14784	-0.53	
37	Tssk	DRSC26679	0.74	
38	wrd	DRSC16344	-0.53	
39	wrd	DRSC23189	-0.18	
40	wrd	DRSC25929	1.14	
41	mod(mdg4)	DRSC13474	-0.36	
42	mod(mdg4)	DRSC13475	0.37	
43	mod(mdg4)	DRSC13478	0.95	
44	mod(mdg4)	DRSC15042	-0.53	
45	mod(mdg4)	DRSC17000	0.05	
46	CG1271	DRSC08290	0.96	
47	CG4546	DRSC15593	-0.53	
48	CG4546	DRSC29584	1.7	
49	Pkg21D	DRSC00772	0.55	
50	Pkg21D	DRSC29092	1.72	
51	Cdk12	DRSC11836	-0.14	
52	Cdk12	DRSC23323	1.52	
53	Cdk12	DRSC29623	3	
54	hep	DRSC19839	-0.38	
55	hep	DRSC20337	-0.9	
56	hep	DRSC26331	-0.53	
57	Sbf	DRSC16852	0.39	
58	Sbf	DRSC27418	0.36	
59	Akap200	DRSC01864	-0.12	
60	fs(1)h	DRSC18778	2.73	-0.24
61	fs(1)h	DRSC29017	2.57	
62	hpRNA:CR18854	DRSC02702	-0.37	
63	hpRNA:CR18854	DRSC29809	3.45	
64	CG10089	DRSC09695	-0.32	
65	CG10089	DRSC25988	3.6	
66	Dgk	DRSC05064	0.68	
67	Dgk	DRSC05065	-0.21	
68	Dgk	DRSC06782	3.14	-0.53
69	Dgk	DRSC25166	4.96	
